Assay results from US20250282871A1, “PHARMACEUTICAL COMBINATION AND USE THEREOF” (TIANJIN LIPOGEN TECHNOLOGY CO., LTD, priority 2021, published 2025).
Some entries share one result that the patent states for a list of compounds.

System: colorectal carcinoma MC38
Experiment: Example 7.2.1: MC38 subcutaneous xenograft, marketed PD-1 inhibitors and 2′,3′-cGAMP
Type: in vivo, mouse
Conditions: intratumor injection; PD-1 antibody 10 mg/kg, 2′,3′-cGAMP 1 mg/kg
Experimental: Tumor cells were cultured and passaged, cells were collected at the logarithmic phase, and formulated into a concentration of (1.0×10^7) per milliliter of cell suspension with 0.1 ml (with a cell number of 1.0×10^6) being injected into the right flank of the mice, the tumor grew to a diameter of about 5 mm within about 10 days, and the model was successfully established, they were randomly divided into 8 groups with 8 mice per group.
Trend of changes in body weight and tumor volume of mice, survival rate of mice, and inhibitory rate of anatomical tumor weight.
Drug interaction coefficient: CDI(CI)=AB/A*B. AB is the ratio of the combination group of two drugs to the control group, as calculated based on the anatomical tumor weight. A or B is the ratio of single drug group to control group.
After successfully establishing a subcutaneous xenograft tumor model of colorectal carcinoma MC38 in mice, they were randomly grouped with 6-8 mice per group and administered once every two days, a total of 3 times.

“Toripalimab: marketed PD-1 monoclonal antibody; G9 of Example 7.2.1, called TERRE in b443” was tested, and the “survival rate at the endpoint of the experiment” value was “above 60%”.
